Drawing on PubChem BioAssay AID248 (DTP/NCI, 2004), this text covers survivor count for 30 compounds.

The list shows only some results of the screen, not a fair sample: it gathers tests that were run many times, whatever their T/C, doses with no T/C, and many T/C values between a quarter and a half above the control. Other doses and runs of a compound stand elsewhere. T/C is the treated group as % of the vehicle group. Some doses have a count of surviving animals in place of a T/C: the source files T/C as zero there, which appears to mark a toxic dose or a test without result, not a measured value. Some doses without a T/C left all or most animals alive at the check, yet need not have been tolerated: survival well below the control is almost never listed, so the zero probably covers shortened survival too. Survivors were counted at the toxicity check, usually on the fifth day, unless a day is given; later deaths do not show. Schedule codes are those of the source, taken here to give the interval after Q, in days (D) or hours (H), and the number of doses after X.

The subject of this test is L1210 leukemia ip in BDF1 mice, survival T/C. The test can be described thus: NCI In Vivo Anticancer Drug Screen. Data for tumor model L1210 Leukemia (intraperitoneal) in B6D2F1 (BDF1) mice. The settings on record: T/C endpoint: mean survival time, higher T/C = longer survival.
Where [1] appears, read: dose: 400.0 mg/kg/injection, schedule: Q04DX002 (ip), vehicle: Klucel (hydroxypropylcellulose) (HPC).
[2] abbreviates: dose: 400.0 mg/kg/injection, schedule: Q04DX003 (ip), vehicle: saline with Tween-80.
The mark [3] stands for this setting: dose: 200.0 mg/kg/injection, schedule: Q04DX003 (ip), vehicle: saline.
The mark [4] stands for this setting: dose: 400.0 mg/kg/injection, schedule: Q04DX003 (ip), vehicle: saline.
Where [5] appears, read: dose: 400.0 mg/kg/injection, schedule: Q01DX001 (ip), vehicle: saline with Tween-80.
Where [6] appears, read: dose: 100.0 mg/kg/injection, schedule: Q01DX001 (ip), vehicle: carboxymethylcellulose (CMC).
Where [7] appears, read: dose: 200.0 mg/kg/injection, schedule: Q01DX001 (ip), vehicle: carboxymethylcellulose (CMC).
The mark [8] stands for this setting: dose: 400.0 mg/kg/injection, schedule: Q01DX001 (ip), vehicle: carboxymethylcellulose (CMC).
Setting [9] is: dose: 200.0 mg/kg/injection, schedule: Q04DX003 (ip), vehicle: Klucel (hydroxypropylcellulose) (HPC).
Where [10] appears, read: dose: 400.0 mg/kg/injection, schedule: Q01DX001 (ip), vehicle: saline.
Setting [11] is: dose: 400.0 mg/kg/injection, schedule: Q04DX002 (ip), vehicle: saline.
[12] abbreviates: dose: 400.0 mg/kg/injection, schedule: Q04DX003 (ip), vehicle: Klucel (hydroxypropylcellulose) (HPC).
Setting [13] is: dose: 50.0 mg/kg/injection, schedule: Q04DX003 (ip), vehicle: Klucel (hydroxypropylcellulose) (HPC).
Where [14] appears, read: dose: 100.0 mg/kg/injection, schedule: Q04DX003 (ip), vehicle: Klucel (hydroxypropylcellulose) (HPC).

In the case of `Cc1ccc(NC(=S)NNC(=S)NNc2ccccc2)cc1`, the survivor count under setting [1] is listed as 3 of 3.

`O=S1(=O)CC2C3C=CC(O3)C21` (centres undefined): the survivor count (dose: 300.0 mg/kg/injection, schedule: Q01DX001 (ip), vehicle: carboxymethylcellulose (CMC)) is 0 of 6.

In the case of `Cc1cccc2c(CBr)cc(=O)[nH]c12`, the survivor count by setting is: (dose: 100.0 mg/kg/injection, schedule: Q04DX003 (ip), vehicle: saline with Tween-80) 3 of 6; (dose: 200.0 mg/kg/injection, schedule: Q04DX003 (ip), vehicle: saline with Tween-80) 0 of 6; under setting [2], 0 of 6.

Take `O=C1OC(=O)C2C3OC(C(Br)C3Br)C12` (centres undefined): the survivor count was 1 of 6 under setting [3] and 0 of 6 under setting [4].

On to `C=C1CC(=O)N(c2ccc(Cl)cc2)C1=O`, for which the survivor count (dose: 100.0 mg/kg/injection, schedule: Q01DX001 (ip), vehicle: saline with Tween-80) was 3 of 6; the survivor count (dose: 200.0 mg/kg/injection, schedule: Q01DX001 (ip), vehicle: saline with Tween-80) was 1 of 6; the survivor count under setting [5] was 0 of 6.

Regarding `O=C1C(=O)c2ccccc2C(O)=C1CC=C1CCCCC1`, the survivor count (dose: 400.0 mg/kg/injection, schedule: Q01DX009 (ip), vehicle: water) is reported as 0 of 6.

On to `O=C1C=CC(=NCl)C=C1`, for which the survivor count (dose: 3.75 mg/kg/injection, schedule: Q01DX015 (ip), vehicle: carboxymethylcellulose (CMC)) was 6 of 6; the survivor count (dose: 20.0 mg/kg/injection, schedule: Q01DX001 (ip), vehicle: carboxymethylcellulose (CMC)) is recorded as 3 of 6; the survivor count (dose: 40.0 mg/kg/injection, schedule: Q01DX001 (ip), vehicle: carboxymethylcellulose (CMC)) is reported as 0 of 6; the survivor count (dose: 50.0 mg/kg/injection, schedule: Q01DX001 (ip), vehicle: carboxymethylcellulose (CMC)) is recorded as 0 of 4; the survivor count (dose: 80.0 mg/kg/injection, schedule: Q01DX001 (ip), vehicle: carboxymethylcellulose (CMC)) is 0 of 6; the survivor count under setting [6] was 0 of 4. The survivor count runs as follows: under setting [7], 0 of 4; under setting [8], 0 of 4.

With `NNC(=O)c1ccccc1[N+](=O)[O-]`, the survivor count under setting [9] is reported as 3 of 6.

Regarding `OC(COc1cccc2ccccc12)CN1CC=C(c2ccccc2)CC1` (centres undefined), the survivor count by setting is: (dose: 200.0 mg/kg/injection, schedule: Q01DX009 (ip), vehicle: Klucel (hydroxypropylcellulose) (HPC)) 0 of 6; (dose: 400.0 mg/kg/injection, schedule: Q01DX009 (ip), vehicle: Klucel (hydroxypropylcellulose) (HPC)) 0 of 6.

Consider `COc1cc([N+](=O)[O-])c2c(ccc[n+]2C)c1OC`, for which the survivor count under setting [2] is listed as 0 of 6.

`O=c1[nH]cnc2nncnc12`: the survivor count is listed as 0 of 4 under setting [6], 0 of 4 under setting [7] and 0 of 4 under setting [8].

Regarding `CN(C)C(=S)Oc1c(Cl)cc(S(=O)(=O)F)cc1Cl`, for the setting “dose: 50.0 mg/kg/injection, schedule: Q04DX002 (ip), vehicle: Klucel (hydroxypropylcellulose) (HPC)”, the survivor count was 3 of 3.

Take `C[N+](C)(C)C1CCCCCCC1`: for the setting “dose: 300.0 mg/kg/injection, schedule: Q01DX001 (ip), vehicle: saline”, the survivor count is 0 of 6.

In the case of `Cc1nc(Br)c2cnccn12`, the survivor count is, setting by setting: (dose: 50.0 mg/kg/injection, schedule: Q01DX009 (ip), vehicle: saline) 0 of 6; (dose: 100.0 mg/kg/injection, schedule: Q04DX003 (ip), vehicle: saline) 2 of 6; under setting [3], 0 of 6; under setting [4], 0 of 6.

For `CCCN(CCC)c1ccc(SC#N)cc1`, the survivor count under setting [10] is on record as 1 of 4.

Take `CCOC(=O)CNC(=O)Oc1ccc(C=O)cc1OC`: the survivor count runs as follows: (dose: 100.0 mg/kg/injection, schedule: Q01DX009 (ip), vehicle: saline with Tween-80) 6 of 6; (dose: 200.0 mg/kg/injection, schedule: Q01DX009 (ip), vehicle: saline with Tween-80) 3 of 6; (dose: 400.0 mg/kg/injection, schedule: Q01DX009 (ip), vehicle: saline with Tween-80) 0 of 6.

`CC[N+](C)(CC)c1ccccc1`: the survivor count (dose: 100.0 mg/kg/injection, schedule: Q04DX002 (ip), vehicle: saline) is recorded as 0 of 3; the survivor count (dose: 200.0 mg/kg/injection, schedule: Q04DX002 (ip), vehicle: saline) is 0 of 3; the survivor count under setting [11] is reported as 0 of 3.

Turning to `[Cl][Pt+2][Cl].[NH-]C(CCCN)C(=O)O.[NH-]C(CCCN)C(=O)O` (centres undefined), the survivor count under setting [2] is listed as 0 of 6.

For the compound `CCOC(=O)c1cnc2ccc(OC)cc2c1`, the survivor count (dose: 500.0 mg/kg/injection, schedule: Q01DX009 (ip), vehicle: saline + alcohol) is 5 of 6.

With `[N-]=[N+]=Nc1ccc(C(=O)NCc2cnc(N)nc2N)cc1`, the survivor count by setting is: (dose: 25.0 mg/kg/injection, schedule: Q04DX002 (ip), vehicle: saline with Tween-80) 3 of 3; (dose: 50.0 mg/kg/injection, schedule: Q04DX002 (ip), vehicle: saline with Tween-80) 3 of 3.

Turning to `CN(CCc1ccccc1)C(N)=S`, the survivor count is on record as 2 of 6 (dose: 150.0 mg/kg/injection, schedule: Q01DX001 (ip), vehicle: acetone) and 0 of 6 (dose: 300.0 mg/kg/injection, schedule: Q01DX001 (ip), vehicle: acetone).

`CC1=C(N2CCCC2)CCCC1=O`: under setting [11], the survivor count is recorded as 0 of 3.

Turning to `CN1OCC2CCCC(c3ccccc3)C21` (centres undefined), under setting [12], the survivor count is listed as 0 of 6.

For `COc1cc(/C=C(/C)[N+](=O)[O-])c([N+](=O)[O-])cc1OC`, under setting [10], the survivor count is 2 of 4.

On to `CC[P+](CC=C(C)C)(c1ccccc1)c1ccccc1`, for which the survivor count (dose: 6.25 mg/kg/injection, schedule: Q04DX003 (ip), vehicle: Klucel (hydroxypropylcellulose) (HPC)) was 3 of 6; the survivor count (dose: 12.5 mg/kg/injection, schedule: Q04DX003 (ip), vehicle: Klucel (hydroxypropylcellulose) (HPC)) is listed as 1 of 6; the survivor count (dose: 25.0 mg/kg/injection, schedule: Q04DX003 (ip), vehicle: Klucel (hydroxypropylcellulose) (HPC)) was 0 of 6; the survivor count under setting [13] was 0 of 6; the survivor count under setting [14] was 0 of 6; the survivor count under setting [9] is listed as 0 of 6. The survivor count under setting [12] is recorded as 6 of 6.

As for `CC1=C(Cl)CS(=O)(=O)C1`, the survivor count under setting [5] is recorded as 0 of 6.

As to `S=C=NCC(Br)CBr` (centres undefined), the survivor count under setting [13] is listed as 3 of 6, the survivor count under setting [14] is 5 of 6, the survivor count under setting [9] is given as 6 of 6 and the survivor count under setting [12] was 5 of 6.

As for `OCC(O)C(O)C(O)C(O)C1SCCS1` (centres undefined), the survivor count under setting [9] is on record as 6 of 6.

`CC(=O)[O][Hg][CH]1CCCCC1O` (centres undefined): the survivor count reads like this: (dose: 25.0 mg/kg/injection, schedule: Q01DX009 (ip), vehicle: saline with Tween-80) 3 of 6; (dose: 50.0 mg/kg/injection, schedule: Q01DX009 (ip), vehicle: saline with Tween-80) 0 of 6.

As to `Nc1cc2c3c(cccc3c1Br)C(=O)OC2=O`, the survivor count under setting [1] is recorded as 1 of 3.
